# Among all 340,000 compounds or so, about 6,200 (1.8%) were called active. Inconclusive means that the source gave no clear call. Such entries were picked first, then a sample of the others. Calls follow the shape of the dose curve; as a rule, active = well fitted activation curve with a large enough effect; inconclusive = small, poorly fitted or top-dose-only effect; inactive = no such curve, though single readings can be large or run the other way. Where the call is inconclusive, the potency comes from a doubtful curve fit.
# Assay: A quantitative high throughput screen for small molecules that induce DNA re-replication in SW480 colon adenocarcinoma cells. Also: nearly all actives have a fitted effect of over 55% in size. As to re-replication activation: % of control where 0% means no effect.
# Conditions: Hoechst DNA content imaging, 48 h; re-replication activation: at 46.1 µM (top of the series) unless noted
# Outline: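 250 cells/well; 23 nL cpd via pin tool; 48 hr, 37 C, 5% CO2; Hoechst 40 min; imager read of total nuclear intensity, ex 405/em 500-530 nm.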
# Potency is read from the fitted curve at half-maximal effect.
SMILES,Potency,re-replication activation
O=C(COC(=O)C1=NN(c2ccccc2)C(=O)CC1)Nc1nc(-c2ccc(F)cc2)cs1,"inconclusive: 16.4 µM [activator, single point]",
Cc1cc(C)nc(SCc2ccc(C(=O)NNC(=O)Nc3cccc(Cl)c3)cc2)n1,"inconclusive: 29.1 µM [activator, single point]",
COc1ccc(N=CC=C2OC(C)(C)C(C)(C)O2)cc1OC,,inactive: -25%
OCCN1CCN(C(=S)c2ccc(-c3ccccc3)cc2)CC1,"inconclusive: 6.51 µM [activator, full curve]",
CCC(Oc1ccccc1)C(=O)OCC(=O)Nc1sccc1C(N)=O (centres undefined),"inconclusive: 23.1 µM [activator, single point]",
CCOCCCN(C)C1CCN(C(=O)c2oc3ccccc3c2NC(=O)Cc2ccc(F)cc2)CC1,,inactive: 156%
COc1ccccc1C(=O)Nc1sc2c(c1C(=O)NCc1ccco1)CCCC2,"inconclusive: 23.1 µM [activator, single point]",
CC(C)N(C(=O)Cn1cc(S(=O)(=O)CC(=O)Nc2ccccc2)c2ccccc21)C(C)C,"inconclusive: 3.26 µM [activator, partial curve, poor fit]",
C=C(C)CN=C1SC(C(=O)Nc2sc3c(c2C(=O)OC)CCC3)C(N)=C1C(N)=O (centres undefined),"inconclusive: 29.1 µM [activator, single point]",
Cc1ccnc2c1ccc1cccnc12,,inactive: -406%
COCCNC(=O)c1ccc(CN2CCC(Cc3ccccc3)CC2)cc1,"inconclusive: 11.6 µM [activator, single point]",
O=C(CCc1ccccc1)NNC(=O)c1ccccc1Br,"inconclusive: 23.1 µM [activator, single point]",
CCc1cc2c(=O)c(-c3ccc4c(c3)OCCO4)coc2cc1OS(C)(=O)=O,active: 9.2 µM,
CC(C)Cn1c(=O)c(C(=O)Nc2cnccn2)c(O)c2ccccc21,,inactive: 3.02%
COc1ccc(-c2nc(N)n(C(=O)c3ccccc3)n2)cc1,"inconclusive: 0.731 µM [activator, full curve, poor fit]",
Cc1cccc(/C=N/NC(=O)c2ccc(NC(=O)c3cccc(Cl)c3)cc2)n1,"inconclusive: 6.51 µM [activator, partial curve, poor fit]",
O=C(NCc1ccco1)c1ccc(Cl)nc1,"inconclusive: 29.1 µM [activator, single point]",
O=S(=O)(Cc1ccccc1)Nc1cccc(F)c1,,inactive: -1.62%
c1ccc2c(-c3csc(-c4ccncc4)n3)c[nH]c2c1,active: 20.6 µM,
CCOc1ccc(CCN2C(=S)N([C@@H](CC(C)C)CN3CCCC3CN3C(=S)NC[C@@H]3Cc3ccc(O)cc3)C[C@@H]2Cc2ccccc2)cc1 (some centres undefined),"inconclusive: 23.1 µM [activator, single point]",
O=C(CCNS(=O)(=O)/C=C/c1ccccc1)NCCc1c[nH]c2ccccc12,"inconclusive: 8.2 µM [activator, partial curve]",
NNc1nc2ccccc2c(=O)n1Cc1ccccc1,,inactive: 5.07%
Cc1[nH]c2c(C)cccc2c1CC(=O)O,"inconclusive: 4.11 µM [activator, full curve, poor fit]",
O=C(N/N=C/C(Br)=C\c1ccccc1)c1n[nH]c2c1CCC2,active: 0.517 µM,
Cc1ccccc1-n1c(C)cc(/C=N/NC(=O)c2ccncc2)c1C,"inconclusive: 16.4 µM [activator, partial curve, poor fit]",

SMILES,Potency,re-replication activation
O=C(C[n+]1cccc(Br)c1)c1ccccc1,,inactive: -0.92%
O=C(Nc1ccc2ccccc2c1)c1cn(-c2ccccc2)nc1-c1cccs1,,inactive: 3.85%
CCOC(=O)c1c(S(=O)(=O)NCC(=O)Nc2cccc(C)c2)c(C)n(C)c1C,"inconclusive: 6.51 µM [activator, single point]",
COc1ccc(/C=C/C(=O)N2CCN(C)CC2)cc1OC,,inactive: -5.32%
O=C(Cn1nc([N+](=O)[O-])nc1Br)NC(c1ccccc1)c1ccccc1,"inconclusive: 31.6 µM [activator, single point]",
COc1ccc(CNC(=O)C(c2ccc(C)o2)N(C(=O)c2csnn2)c2ccc(C(C)C)cc2)cc1 (centres undefined),"inconclusive: 16.4 µM [activator, partial curve, poor fit]",
CC(C)(C)C(=O)Nc1ccccc1C(=O)Nc1ccccn1,,inactive: -9.54%
Cc1ccc(-c2cnc(SCC(=O)N3CCCc4ccccc43)n2C)cc1,,inactive: -5.11%
O=C(NCCC1=CCCCC1)C1CCC(CNc2nc(=S)[nH]c3ccccc23)CC1 (centres undefined),,inactive: 10.4%
O=C(Nc1nnc(/C=C/c2ccccc2)s1)c1ccco1,"inconclusive: 16.4 µM [activator, partial curve, poor fit]",
CNS(=O)(=O)c1cccc(C(=O)OCc2cc(C(C)=O)ccc2OC)c1,"inconclusive: 0.411 µM [activator, full curve, poor fit]",
Cc1ccc(/C=C/C(=O)N2CC(C)CC(C)C2)o1 (centres undefined),active: 16.4 µM,
O=c1[nH]c(=O)c2cc([N+](=O)[O-])cc([N+](=O)[O-])c2[nH]1,"inconclusive: 7.31 µM [activator, partial curve, poor fit]",
CN1CCN(C(=S)Nc2ccccc2Cl)CC1,"inconclusive: 9.2 µM [activator, partial curve, poor fit]",
Cc1nn(-c2ccccc2)c2nc(-c3ccccc3)cc(C(=O)N3CCOCC3)c12,,inactive: 5.78%
CC(C)N(CCNCC(O)COc1ccc(C(C)(C)c2ccccc2)cc1)C(C)C (centres undefined),"inconclusive: 29.1 µM [activator, single point]",
O=[N+]([O-])c1ccc(O)c(C2CCCCC2)c1,"inconclusive: 29.1 µM [activator, single point]",
CCN1CCN(c2nc3ccccc3nc2C(C#N)C(=O)OCc2ccccc2)CC1 (centres undefined),"inconclusive: 20.6 µM [activator, single point]",
C(CCc1nn[nH]n1)CCC1CCCCC1,,inactive: -2.79%
CCC(=O)NCCCc1nc(-c2ccccc2)no1,,inactive: -7.19%
CC(OC(=O)c1cc(=O)[nH]c2ccccc12)C(=O)N1C(C)CCCC1C (centres undefined),,inactive: -5.84%
COc1ccc(C(=O)OCC(=O)Nc2ccc(N3CCOCC3)cc2)cc1,"inconclusive: 29.1 µM [activator, single point]",
COC(=O)c1c(NC(=O)Cn2cnc([N+](=O)[O-])n2)sc2c1CCC(C)C2 (centres undefined),,inactive: 12.9%
Cc1ccc(S(=O)(=O)Nc2ccc(N3CCOCC3)cc2)cc1C,,inactive: -2.86%
Fc1ccccc1N1CCN(C2CCN(Cc3c[nH]c4ccccc34)CC2)CC1,,inactive: -2.15%

# Ordered by number of heavy atoms (descending): some entries from above
SMILES,Potency,re-replication activation
CC(C)N(CCNCC(O)COc1ccc(C(C)(C)c2ccccc2)cc1)C(C)C (centres undefined),"inconclusive: 29.1 µM [activator, single point]",
Cc1ccc(-c2cnc(SCC(=O)N3CCCc4ccccc43)n2C)cc1,,inactive: -5.11%
COc1ccc(/C=C/C(=O)N2CCN(C)CC2)cc1OC,,inactive: -5.32%

# Continued:

SMILES,Potency,re-replication activation
O=C(NCc1ccco1)/C(=C/c1ccccc1)NC(=O)c1ccco1,"inconclusive: 7.31 µM [activator, partial curve, poor fit]",
CNC(=O)COc1ccc(S(=O)(=O)Nc2ccccc2)cc1,"inconclusive: 25.9 µM [activator, single point]",
COc1cc(C(C)=O)ccc1Oc1ncnc2c1cnn2-c1ccc(C)c(C)c1,,inactive: 2.7%
S=C(NCCc1ccccc1)N1CCn2cccc2C1c1cccnc1 (centres undefined),,inactive: 2.78%
CC(NCC(O)COc1ccc2ccccc2c1)c1ccccc1 (centres undefined),active: 23.1 µM,
Cn1c(CNC(=O)C(Cc2ccccc2)NC(=O)c2ccccc2F)cc(=O)n(C)c1=O (centres undefined),,inactive: -1.7%
O=c1c2ccccc2nc(/C=C/c2ccccc2)n1CCCO,"inconclusive: 1.64 µM [activator, partial curve, poor fit]",
CCOc1ccc2nc(NC(=O)CSc3nc(-c4ccccc4)c(C#N)c(=O)[nH]3)sc2c1,,inactive: 1.13%
COc1ccc2c(C)cc(N3CCOCC3)nc2c1,,inactive: -5.43%
COc1cc(/C=C2\SC(=Nc3ccccc3)NC2=O)cc(Cl)c1O,"inconclusive: 18.4 µM [activator, single point]",
COc1cc(C)c(-c2cc(C(=O)O)c(C)o2)cc1C(C)C,"inconclusive: 18.4 µM [activator, single point]",
CC(C(=O)O)n1c2ccccc2c2cn[nH]c(=O)c21 (centres undefined),"inconclusive: 0.116 µM [activator, full curve, poor fit]",
O=C(c1ccccc1Oc1ccc(C(F)(F)F)cc1[N+](=O)[O-])N1CCOCC1,,inactive: -0.503%
O=C(Cn1ccccc1=O)c1ccc(Cl)cc1,"inconclusive: 32.6 µM [activator, partial curve, poor fit]",
COc1ccc(Nc2nnc(SCC(=O)c3cc4ccccc4o3)s2)cc1,"inconclusive: 16.4 µM [activator, partial curve, poor fit]",
CCOc1cc(/C=C2\N=C(C)OC2=O)cc(Cl)c1OCC(=O)OC,"inconclusive: 0.092 µM [activator, full curve, poor fit]",
Cc1cc(SCC(=O)c2cc(C)n(C)c2C)nc2ccccc12,"inconclusive: 29.1 µM [activator, single point]",
CN(C)CCCNS(=O)(=O)c1ccc(NC2CCCCCC2)c([N+](=O)[O-])c1,"inconclusive: 29.1 µM [activator, single point]",
COc1ccc(C(=O)Nc2ccc3c(c2)OCCO3)cc1,active: 7.31 µM,
CCOC(=O)c1c(-c2ccc(C)o2)csc1NC(=O)COC(=O)c1cccs1,,inactive: -2.59%
Cc1cccc(Nc2ncnc(N)c2[N+](=O)[O-])n1,,inactive: 0.373%
C/C(=N\NC(=O)c1cc([N+](=O)[O-])cc([N+](=O)[O-])c1)c1ccco1,,inactive: 12.6%
O=C(COC(=O)c1cc[n+]([O-])cc1)NCCc1ccc(Cl)cc1Cl,"inconclusive: 0.251 µM [activator, partial curve, poor fit]",
COc1ccc(CN2CN(C3CCCC3)CSC2=S)cc1,"inconclusive: 25.9 µM [activator, single point]",

# 4 entries picked at random from the list so far:
SMILES,Potency,re-replication activation
CCc1cc2c(=O)c(-c3ccc4c(c3)OCCO4)coc2cc1OS(C)(=O)=O,active: 9.2 µM,
CNC(=O)COc1ccc(S(=O)(=O)Nc2ccccc2)cc1,"inconclusive: 25.9 µM [activator, single point]",
CCOC(=O)c1c(-c2ccc(C)o2)csc1NC(=O)COC(=O)c1cccs1,,inactive: -2.59%
Cc1ccccc1-n1c(C)cc(/C=N/NC(=O)c2ccncc2)c1C,"inconclusive: 16.4 µM [activator, partial curve, poor fit]",

# From PubChem BioAssay AID624297 (National Center for Advancing Translational Sciences (NCATS), 2012)
